# From PMC8881609
# Chains of the proteins cited; added tags and fusions are not shown. Lines headed by an entry give the natural chain unless they say otherwise; changes in a name come on top.
# UniProt Q8R0K2: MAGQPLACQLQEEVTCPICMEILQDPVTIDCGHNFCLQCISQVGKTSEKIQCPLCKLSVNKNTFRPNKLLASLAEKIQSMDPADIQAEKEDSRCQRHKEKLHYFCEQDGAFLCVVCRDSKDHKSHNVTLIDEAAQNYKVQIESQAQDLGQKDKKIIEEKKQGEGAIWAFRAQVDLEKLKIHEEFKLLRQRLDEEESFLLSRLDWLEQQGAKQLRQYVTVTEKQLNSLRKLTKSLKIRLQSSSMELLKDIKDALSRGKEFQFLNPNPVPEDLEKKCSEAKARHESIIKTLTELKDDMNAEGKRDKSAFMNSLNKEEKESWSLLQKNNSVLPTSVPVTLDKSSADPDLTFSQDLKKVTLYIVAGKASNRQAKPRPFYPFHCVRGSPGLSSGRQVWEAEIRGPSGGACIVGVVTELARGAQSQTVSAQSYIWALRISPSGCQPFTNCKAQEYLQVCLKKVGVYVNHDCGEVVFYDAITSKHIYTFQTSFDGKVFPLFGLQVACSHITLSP
# T1: TRIM31-Flag WT (human tripartite motif-containing protein 31, E3 ubiquitin ligase) (human) (UniProt Q9BZY9)
# T1 sequence: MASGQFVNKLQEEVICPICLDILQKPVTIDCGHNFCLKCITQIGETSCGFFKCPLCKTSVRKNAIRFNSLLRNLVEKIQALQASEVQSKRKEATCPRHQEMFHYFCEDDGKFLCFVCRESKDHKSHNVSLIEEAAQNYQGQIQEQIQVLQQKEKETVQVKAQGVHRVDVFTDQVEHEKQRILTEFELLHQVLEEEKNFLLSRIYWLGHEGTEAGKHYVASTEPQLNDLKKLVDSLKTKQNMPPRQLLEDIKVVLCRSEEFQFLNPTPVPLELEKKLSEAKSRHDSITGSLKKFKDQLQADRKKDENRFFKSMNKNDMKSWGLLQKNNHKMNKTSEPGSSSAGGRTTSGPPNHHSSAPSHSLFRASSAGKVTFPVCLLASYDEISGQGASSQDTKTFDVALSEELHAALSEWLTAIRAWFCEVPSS
# How the values were obtained:
# [1] = target: T1, TRIM31-Flag WT (human tripartite motif-containing protein 31, E3 ubiquitin ligase) (human); experiment: co-IP; L02 cells transiently transfected with Flag- and HA-tagged vectors, 36 h; Pierce IP Lysis Buffer at 4 °C; Protein A/G magnetic agarose beads, indicated antibodies at 4 °C overnight; blots probed with anti-Flag or anti-HA
# [2] = target: TRIM31-Flag RING^Δ (RING-finger domain ablation mutant) (human) (UniProt Q9BZY9); experiment: as above
# [3] = target: mouse Trim31-Flag CC^Δ (CC domain deletion) (mouse) (UniProt Q8R0K2); experiment: co-IP; transfected mouse hepatocytes; mouse Trim31-Flag and Rhbdf2-HA vectors (wild type, CC^Δ, Tail^Δ)
molecule,measurement,setting,value
RHBDF2-HA Tail^Δ (N-terminal cytoplasmic tail domain deletion mutant) (from UniProt Q6PJF5) (domain or fragment),binding,[1],no binding
"RHBDF2-HA WT (human rhomboid 5 homolog 2) (protein, UniProt Q6PJF5 1-856) MASADKNGGSVSSVSSSRLQSRKPPNLSITIPPPEKETQAPGEQDSMLPEGFQNRRLKKSQPRTWAAHTTACPPSFLPKRKNPAYLKSVSLQEPRSRWQESSEKRPGFRRQASLSQSIRKGAAQWFGVSGDWEGQRQQWQRRSLHHCSMRYGRLKASCQRDLELPSQEAPSFQGTESPKPCKMPKIVDPLARGRAFRHPEEMDRPHAPHPPLTPGVLSLTSFTSVRSGYSHLPRRKRMSVAHMSLQAAAALLKGRSVLDATGQRCRVVKRSFAFPSFLEEDVVDGADTFDSSFFSKEEMSSMPDDVFESPPLSASYFRGIPHSASPVSPDGVQIPLKEYGRAPVPGPRRGKRIASKVKHFAFDRKKRHYGLGVVGNWLNRSYRRSISSTVQRQLESFDSHRPYFTYWLTFVHVIITLLVICTYGIAPVGFAQHVTTQLVLRNKGVYESVKYIQQENFWVGPSSIDLIHLGAKFSPCIRKDGQIEQLVLRERDLERDSGCCVQNDHSGCIQTQRKDCSETLATFVKWQDDTGPPMDKSDLGQKRTSGAVCHQDPRTCEEPASSGAHIWPDDITKWPICTEQARSNHTGFLHMDCEIKGRPCCIGTKGSCEITTREYCEFMHGYFHEEATLCSQVHCLDKVCGLLPFLNPEVPDQFYRLWLSLFLHAGVVHCLVSVVFQMTILRDLEKLAGWHRIAIIFILSGITGNLASAIFLPYRAEVGPAGSQFGLLACLFVELFQSWPLLERPWKAFLNLSAIVLFLFICGLLPWIDNIAHIFGFLSGLLLAFAFLPYITFGTSDKYRKRALILVSLLAFAGLFAALVLWLYIYPINWPWIEHLTCFPFTSRFCEKYELDQVLH",binding,[2],binds
"mouse Rhbdf2-HA wild type (protein, UniProt Q80WQ6 1-827) MASADKNGSNLPSVSGSRLQSRKPPNLSITIPPPESQAPGEQDSMLPERRKNPAYLKSVSLQEPRGRWQEGAEKRPGFRRQASLSQSIRKSTAQWFGVSGDWEGKRQNWHRRSLHHCSVHYGRLKASCQRELELPSQEVPSFQGTESPKPCKMPKIVDPLARGRAFRHPDEVDRPHAAHPPLTPGVLSLTSFTSVRSGYSHLPRRKRISVAHMSFQAAAALLKGRSVLDATGQRCRHVKRSFAYPSFLEEDAVDGADTFDSSFFSKEEMSSMPDDVFESPPLSASYFRGVPHSASPVSPDGVHIPLKEYSGGRALGPGTQRGKRIASKVKHFAFDRKKRHYGLGVVGNWLNRSYRRSISSTVQRQLESFDSHRPYFTYWLTFVHIIITLLVICTYGIAPVGFAQHVTTQLVLKNRGVYESVKYIQQENFWIGPSSIDLIHLGAKFSPCIRKDQQIEQLVRRERDIERTSGCCVQNDRSGCIQTLKKDCSETLATFVKWQNDTGPSDKSDLSQKQPSAVVCHQDPRTCEEPASSGAHIWPDDITKWPICTEQAQSNHTGLLHIDCKIKGRPCCIGTKGSCEITTREYCEFMHGYFHEDATLCSQVHCLDKVCGLLPFLNPEVPDQFYRIWLSLFLHAGIVHCLVSVVFQMTILRDLEKLAGWHRISIIFILSGITGNLASAIFLPYRAEVGPAGSQFGLLACLFVELFQSWQLLERPWKAFFNLSAIVLFLFICGLLPWIDNIAHIFGFLSGMLLAFAFLPYITFGTSDKYRKRALILVSLLVFAGLFASLVLWLYIYPINWPWIEYLTCFPFTSRFCEKYELDQVLH",binding,[3],no binding

# No constants are given. Whether binding was seen depends on the method and setting. Binding seen in cells or lysates may run through a third protein. For part of these data: Binding calls can cover weak binding; strength is not graded here. Where a sequence is shown, tags or fusion partners need not be part of it.
